# The list does not hold the whole screen: it gathers tests that were run many times, whatever their T/C, doses with no T/C, and many T/C values between a quarter and a half above the control. Further doses and runs are listed elsewhere. T/C: endpoint of the treated group in % of that of the vehicle group. Some entries give survivors of the animals treated and no T/C: the source holds a T/C of zero for them, seemingly a mark for toxic or unscored doses. Some survivor counts are full or nearly so, which does not show that the dose was tolerated: the source hardly ever lists a survival T/C far under the control, and the zero likely stands for such cases as well. Counts of survivors are from the toxicity check (mostly the fifth day) where no day follows; animals may have died later. Schedule codes are those of the source, read here as Q, the interval in days (D) or hours (H), X, the number of doses. Some molecules as drawn cover several salts, stereoisomers or complexes of the source; a dose is that of the sample tested. Some doses were run more than once; their values stand side by side, smallest first. Where survival is the endpoint, the PubChem record calls one and a half times the control and up active, and a quarter to a half above the control has no call in these data; cut-offs in other NCI protocols can differ. Counts like (3×) stand for listed records that agree.
# System: L1210 leukemia ip in BDF1 mice, survival T/C
# Assay: NCI In Vivo Anticancer Drug Screen. Data for tumor model L1210 Leukemia (intraperitoneal) in B6D2F1 (BDF1) mice
# Details: T/C endpoint: mean survival time, higher T/C = longer survival
# [1] = dose: 200.0 mg/kg/injection, schedule: Q04DX003 (ip), vehicle: saline
# [2] = dose: 400.0 mg/kg/injection, schedule: Q04DX003 (ip), vehicle: saline
# [3] = dose: 400.0 mg/kg/injection, schedule: Q01DX009 (ip), vehicle: saline with Tween-80
# [4] = dose: 400.0 mg/kg/injection, schedule: Q04DX003 (ip), vehicle: saline with Tween-80
# [5] = dose: 400.0 mg/kg/injection, schedule: Q04DX003 (ip), vehicle: Klucel (hydroxypropylcellulose) (HPC)
# [6] = dose: 200.0 mg/kg/injection, schedule: Q04DX003 (ip), vehicle: saline with Tween-80
# [7] = dose: 400.0 mg/kg/injection, schedule: Q01DX009 (ip), vehicle: saline
smiles,measurement,setting,value
CCN=C(c1ccc(NC(=O)c2ccc(C(=O)Nc3ccc(C(=NCC)N(CC)C(=O)NCCCl)cc3)cc2)cc1)N(CC)C(=O)NCCCl,survivor count,"dose: 15.0 mg/kg/injection, schedule: Q01DX015 (ip), vehicle: methylcellulose (MC)",1 of 6
same,survivor count,"dose: 30.0 mg/kg/injection, schedule: Q01DX015 (ip), vehicle: methylcellulose (MC)",0 of 6
same,survivor count,"dose: 62.0 mg/kg/injection, schedule: Q01DX015 (ip), vehicle: methylcellulose (MC)",0 of 6
same,survivor count,"dose: 125.0 mg/kg/injection, schedule: Q01DX015 (ip), vehicle: methylcellulose (MC)",0 of 6
same,survivor count,"dose: 250.0 mg/kg/injection, schedule: Q01DX015 (ip), vehicle: methylcellulose (MC)",0 of 6
same,survivor count,"dose: 500.0 mg/kg/injection, schedule: Q01DX015 (ip), vehicle: methylcellulose (MC)",0 of 6
O=C1C=CC(=O)c2c1ccc1c2[nH]c2ccccc21,survivor count,"dose: 400.0 mg/kg/injection, schedule: Q04DX002 (ip), vehicle: saline with Tween-80",0 of 3
C/C(=N/N(C)C)c1ccc(Cl)cc1,survivor count,[1],6 of 6
same,survivor count,[2],6 of 6
NC=O,survivor count,"dose: 500.0 mg/kg/injection, schedule: Q01DX009 (ip), vehicle: saline",6 of 6
CCOC(=O)/C(C#N)=C\c1cc(OC)ccc1OC,survivor count,"dose: 200.0 mg/kg/injection, schedule: Q01DX009 (ip), vehicle: saline with Tween-80",6 of 6
same,survivor count,[3],5 of 6
c1ccc(-c2nc(Oc3ccc(Oc4nc(-c5ccccc5)nc(-c5ccccc5)n4)cc3)nc(-c3ccccc3)n2)cc1,survivor count,"dose: 100.0 mg/kg/injection, schedule: Q04DX003 (ip), vehicle: saline with Tween-80",6 of 6
same,survivor count,[4],6 of 6
CN1CCN(CCNC(c2ccccc2)C(O)c2ccccc2)CC1 (centres undefined),survivor count,"dose: 200.0 mg/kg/injection, schedule: Q04DX003 (ip), vehicle: Klucel (hydroxypropylcellulose) (HPC)",1 of 6
same,survivor count,[5],1 of 6
CCCCCCCCC[n+]1cccc(C(N)=O)c1,survivor count,[6],0 of 6
same,survivor count,[4],0 of 6
CCC(CO)Nc1nc2ccc([N+](=O)[O-])cc2c2ccccc12 (centres undefined),survivor count,"dose: 400.0 mg/kg/injection, schedule: Q01DX009 (ip), vehicle: Klucel (hydroxypropylcellulose) (HPC)",6 of 6
CCOC(=O)c1cc(=O)c2c(ccc3cc(OC)ccc32)[nH]1,T/C,"dose: 12.5 mg/kg/injection, schedule: Q04DX002 (ip), vehicle: carboxymethylcellulose (CMC)","92, 97, 98, 100 % of control"
same,T/C,"dose: 25.0 mg/kg/injection, schedule: Q04DX002 (ip), vehicle: carboxymethylcellulose (CMC)","95, 96, 108, 126 % of control"
same,T/C,"dose: 50.0 mg/kg/injection, schedule: Q04DX002 (ip), vehicle: carboxymethylcellulose (CMC)","96, 103, 104 % of control (2×)"
CCCCCCCCCCNCCC(=O)O,survivor count,"dose: 150.0 mg/kg/injection, schedule: Q01DX009 (ip), vehicle: saline",2 of 6 and 3 of 6
same,survivor count,"dose: 200.0 mg/kg/injection, schedule: Q01DX001 (ip), vehicle: saline",2 of 6
same,survivor count,"dose: 225.0 mg/kg/injection, schedule: Q01DX009 (ip), vehicle: saline",0 of 6
same,survivor count,"dose: 300.0 mg/kg/injection, schedule: Q01DX001 (ip), vehicle: saline",0 of 6
same,survivor count,"dose: 335.0 mg/kg/injection, schedule: Q01DX009 (ip), vehicle: saline",0 of 6
same,survivor count,"dose: 400.0 mg/kg/injection, schedule: Q01DX001 (ip), vehicle: saline",1 of 6
O=C1C=C2CCN(Cc3ccccc3)CC2CC1 (centres undefined),survivor count,[2],5 of 6
CN(C)C(CC(=O)c1ccccc1)C(=O)O (centres undefined),survivor count,[2],0 of 6
CC(=O)NCCCCC(=O)c1ccccc1,survivor count,[3],3 of 6
OC(c1ccccc1)(c1ccccc1)C1c2ccccc2-c2[nH]c3ccccc3c21 (centres undefined),survivor count,"dose: 100.0 mg/kg/injection, schedule: Q01DX001 (ip), vehicle: saline with Tween-80",3 of 3
same,survivor count,"dose: 400.0 mg/kg/injection, schedule: Q01DX001 (ip), vehicle: saline with Tween-80",3 of 3
O=c1cc(CO)occ1O.O=c1cc(CO)occ1O.[O]=[V],survivor count,"dose: 32.0 mg/kg/injection, schedule: Q01DX015 (ip), vehicle: carboxymethylcellulose (CMC)",3 of 6
same,survivor count,"dose: 50.0 mg/kg/injection, schedule: Q01DX001 (ip), vehicle: carboxymethylcellulose (CMC)",2 of 4
same,survivor count,"dose: 50.0 mg/kg/injection, schedule: Q01DX009 (ip), vehicle: saline",1 of 6
same,survivor count,"dose: 75.0 mg/kg/injection, schedule: Q01DX001 (ip), vehicle: saline",3 of 6
same,survivor count,"dose: 75.0 mg/kg/injection, schedule: Q04DX003 (ip), vehicle: saline",1 of 6
same,survivor count,"dose: 100.0 mg/kg/injection, schedule: Q01DX001 (ip), vehicle: carboxymethylcellulose (CMC)",1 of 4
same,survivor count,"dose: 115.0 mg/kg/injection, schedule: Q01DX001 (ip), vehicle: saline",0 of 6
same,survivor count,"dose: 115.0 mg/kg/injection, schedule: Q04DX003 (ip), vehicle: saline",1 of 6
same,survivor count,"dose: 170.0 mg/kg/injection, schedule: Q01DX001 (ip), vehicle: saline",0 of 6
same,survivor count,"dose: 170.0 mg/kg/injection, schedule: Q04DX003 (ip), vehicle: saline",0 of 6
same,survivor count,"dose: 200.0 mg/kg/injection, schedule: Q01DX001 (ip), vehicle: carboxymethylcellulose (CMC)",0 of 4
same,survivor count,"dose: 400.0 mg/kg/injection, schedule: Q01DX001 (ip), vehicle: carboxymethylcellulose (CMC)",0 of 4
CC(=O)C(=Cc1ccccc1)C(C)=O,survivor count,"dose: 200.0 mg/kg/injection, schedule: Q01DX009 (ip), vehicle: Klucel (hydroxypropylcellulose) (HPC)",6 of 6
N=C(N)c1ccc(C(=O)Oc2ccc([N+](=O)[O-])cc2)cc1,survivor count,"dose: 100.0 mg/kg/injection, schedule: Q01DX009 (ip), vehicle: saline with Tween-80",6 of 6
same,survivor count,[6],2 of 6
same,survivor count,[4],1 of 6
CC1CN=C(c2ccc3ccccc3c2O)S1 (centres undefined),survivor count,"dose: 400.0 mg/kg/injection, schedule: Q01DX005 (ip), vehicle: saline with Tween-80",3 of 3
NC(CSS(=O)(=O)O)=NCCCCc1ccccc1,survivor count,"dose: 50.0 mg/kg/injection, schedule: Q04DX002 (ip), vehicle: Klucel (hydroxypropylcellulose) (HPC)",3 of 3
same,survivor count,"dose: 100.0 mg/kg/injection, schedule: Q04DX002 (ip), vehicle: Klucel (hydroxypropylcellulose) (HPC)",1 of 3
same,survivor count,"dose: 200.0 mg/kg/injection, schedule: Q04DX002 (ip), vehicle: Klucel (hydroxypropylcellulose) (HPC)",2 of 3
same,survivor count,"dose: 400.0 mg/kg/injection, schedule: Q04DX002 (ip), vehicle: Klucel (hydroxypropylcellulose) (HPC)",0 of 3
NCCNC12CC3CC(CC(C3)C1)C2,survivor count,"dose: 400.0 mg/kg/injection, schedule: Q04DX002 (ip), vehicle: saline",1 of 3
CN1CC(C(=O)N2CCCCC2)C=C2c3cccc4[nH]cc(c34)CC21 (centres undefined),survivor count,"dose: 100.0 mg/kg/injection, schedule: Q04DX003 (ip), vehicle: saline",3 of 6
same,survivor count,[1],0 of 6
same,survivor count,[2],0 of 6
CCCCCCP(=O)(CCCCCC)C1CCCC1,survivor count,[4],4 of 6
CN1CCNC(=O)CC1,survivor count,"dose: 400.0 mg/kg/injection, schedule: Q01DX009 (ip), vehicle: water",6 of 6
O=P(CCO)(c1ccccc1)c1ccccc1,survivor count,[4],3 of 6
Cc1cc(Cl)c2cc(Cl)cc(Cl)c2n1,survivor count,[7],5 of 6
C=C1C(=O)OC2C1CCC(C)C1C=CC(=O)C12C (centres undefined),survivor count,[7],4 of 6
c1ccc2ncccc2c1,survivor count,[5],1 of 6
CCNCc1ccc(OC)cc1,survivor count,[6],2 of 6
same,survivor count,[4],0 of 6
CN=C(N)c1ccc(N=C(N)c2ccc(N=C(N)c3ccc(N=C(O)c4cccc(C(O)=Nc5ccc(C(N)=Nc6ccc(C(N)=Nc7ccc(C(N)=NC)cc7)cc6)cc5)c4)cc3)cc2)cc1,T/C,"dose: 3.25 mg/kg/injection, schedule: Q01DX015 (ip), vehicle: water",128 % of control
same,T/C,"dose: 6.5 mg/kg/injection, schedule: Q01DX015 (ip), vehicle: water",142 % of control
same,T/C,"dose: 26.0 mg/kg/injection, schedule: Q01DX015 (ip), vehicle: water",148 % of control
